Experimental data reported in patent US7572798B2, “Combi-molecules having signal transduction inhibitory properties and DNA damaging properties” (McGill University, priority 2001, dated 2009).
Some results were stated once for a whole list of compounds, not compound by compound.

System: NIH3T3HER14 cells
Assay: Growth factor-stimulated proliferation in NIH3T3HER14 cells (SRB)
Format: cell-based, mouse
Conditions: serum-stimulated growth, NIH3T3HER14, 72 h
Protocol: To study the effect of our compounds on growth factors stimulated proliferation, cells were grown to 70% confluence in 48-well plates and washed twice with PBS, after which they were exposed to serum-free medium for 18 h. The cells were then exposed to each drug and growth factors (EGF, TGFα, PDGF or serum) for 72 h and cell growth measured using the sulforhodamine B (SRB) assay (33). Briefly, following drug treatment, cells were fixed using 50 μl of cold trichloroacetic acid (50%) for 60 min at 4° C., washed five times with tap water, and stained for 30 min at room temperature with SRB (0.4%) dissolved in acetic acid (0.5%). The plates were rinsed five times with 1% acetic acid and allowed to air dry. […] Each point represents the average of at least two independent experiments run in triplicate.

CNN=Nc1ccc2ncnc(Nc3cccc(Cl)c3)c2c1 [BJ2000]
concentration giving 100% growth inhibition: > 30 µM
